According to publication PMC10368747, “Zinc-finger BED domains drive the formation of the active Hermes transpososome by asymmetric DNA binding”:
A weaker result is weaker than the reference pair of the same experiment. Where a protein sequence is shown, tags need not be part of it. Construct, isoform or probe ends are uncertain for at least one entry. At least one verdict rests on a figure or table, not on a statement of the authors.

Biological target: T1, Hermes BED domain (Musca domestica) (UniProt Q25442)
T1 sequence (looked up): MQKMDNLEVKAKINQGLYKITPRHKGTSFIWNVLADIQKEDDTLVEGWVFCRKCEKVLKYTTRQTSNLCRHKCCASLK
Test: SEC
Settings: recombinant protein, residues 1-78, protein details: untagged

“CAACAAGCCACAGGCAA (double strand) [RE11-27]”: binds more weakly (no stable complex, similar to ran17).
“CAACAAGCGTTTTATTT (double strand) [LE11-27mutC]”: binds more weakly (weak, comparable to ran17).
“CAACAAGTCACAGGCAA (double strand) [RE11-27T]”: binds more weakly (no stable complex).
“CGCGATGAGTTCTCGAC (double strand) [ran17]”: binds more weakly (label: 5'-6FAM top strand (EMSA)).
“CGGCAAGTGGCGCATTT (double strand) [LE11-27mut-5'3'G (5'3'GC)]”: binds more weakly (AT-rich region after AAGT removed).
“CGGCAAGTGTTTTATTT (double strand) [LE11-27mut-5'G (5'GC)]”: binds (3' AT-rich region retained).
